# In ChEMBL document CHEMBL5528009, “Benzothiozinone derivatives with anti-tubercular Activity-Further side chain investigation” (Eur J Med Chem, 2024):
# Test: Metabolic stability in NADPH-fortified human liver microsomes assessed as CYP450-mediated stability by measuring half-life incubated for 120 mins by LC/MS analysis
structure (smiles),measurement,value
Cc1ncc2n1-c1ccc(Cl)cc1C(c1ccccc1F)=NC2 [MIDAZOLAM],half-life at 2 h,6.6 min
